In patent EP4663202A1 (Innovent Biologics (Suzhou) Co., Ltd., dated 2025):
These are yes or no findings as the source states them, for the method shown. Some entries that bind do so weakly or less than the wild type.

Target: T1, human VEGFC (human, UniProt P49767 103-227, limits assumed)
T1 sequence (looked up): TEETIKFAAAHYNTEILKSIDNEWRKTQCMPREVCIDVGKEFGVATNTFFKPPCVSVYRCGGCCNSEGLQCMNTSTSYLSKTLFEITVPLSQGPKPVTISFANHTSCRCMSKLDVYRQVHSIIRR
Assay: blocking ELISA, VEGFC-biotin on streptavidin plate, VEGFR3-Fc 0.2 ug/mL

B1: anti-VEGFC antibody am63G12.1-5G8-18B9 (VHH)
VHH: EVQLVESGGGLVQPGGSLRLSCAASGSSFSPYAMGWYRQAPGKQRELVSATSSGGFTLYADSVKGRFTISRDNSKNTVYLQMNSLRAEDTAVYYCYTYYREYDPEMYWGQGTQVTVSS
notes: also called anti-VEGFC humanized VHH antibody
- binding: binds
